This is one part of the list. These are further read-outs of the screen, such as a control signal, another cell line or another target. No call is given for them. Most of these compounds were active or inconclusive in the main read-out, so they are no random draw. Words in brackets tell the shape of the fitted curve; partial curves, single points and poor fits give uncertain potencies.

This assay is described as follows: qHTS Assay to Find Inhibitors of Chronic Active B-Cell Receptor Signaling. The conditions noted are these: ABC-DLBCL IkBa-CBG/CBR reporter, luminescence ratio (green luciferase fused to IkBa over red control in TMD8 lymphoma cells), 4 h. In a few lines: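 Compounds up to 46 uM were incubated four hours with TMD8 cells whose green CBG68 luciferase is fused to IkappaBalpha; red CBR luminescence normalised the signal, and concentration-effect curves were fitted to fusion, red and ratio data.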

Setting [1] is: measured here: IkBa-CBG green luminescence.
Setting [2] is: measured here: CBR red luminescence, cell number.

A word on the AC50: it is the concentration giving half of the maximal activity seen. On to `O=C1c2ccccc2C2=Nc3ccccc3SC(c3ccc(Cl)cc3)C12` (stereo not drawn), for which the AC50 under setting [1] is 14.6 µM [rising, partial curve, poor fit]. As to `COc1cnc(-c2ccccn2)nc1Oc1ccc(C(C)(C)C)cc1`, the AC50 is 10 µM [rising, partial curve] under setting [2] and 35.5 µM [falling, partial curve, poor fit] under setting [1]. With `CC1CCCN(Cc2c(O)ccc3c(=O)c(-c4nc5ccccc5s4)c(N)oc23)C1` (stereo not drawn), the AC50 under setting [2] was 2.82 µM [falling, full curve, poor fit]. For `O=C(NC1CC2CCCC(C1)N2Cc1ccccc1)C1CCCCC1` (stereo not drawn), under setting [2], the AC50 was 7.08 µM [rising, partial curve]. The same measure, in the same setting: to `C=CCn1c(COc2ccccc2)nnc1SCC(=O)C(C)(C)C` belongs 25.9 µM [falling, partial curve, poor fit]; to `O=C1N=C(N2CCCC2)S/C1=C\C=C\c1ccccc1`, 7.94 µM [falling, partial curve, poor fit]; to `COc1cc2c(cc1OC)C(c1ccc(C)cc1)NC(=O)C2` (stereo not drawn), 35.5 µM [rising, single point]. On to `Cc1oc2nc(SCCCC(=O)NCCCO)nc(N)c2c1C`, for which, under setting [2], the half-maximal activity concentration (AC50) was 20.6 µM [falling, single point]. As for `O=C(CSc1ncn[nH]1)Nc1ccc(Br)cc1Br`, under setting [2], the AC50 was 18.4 µM [falling, partial curve]. Consider `Cc1ccc(S(=O)(=O)Nc2cc(C(=O)NCCN3CCCC3)ccc2N2CCCCC2)cc1`, for which, under setting [2], the AC50 is 35.5 µM [falling, single point].

Consider `Clc1ccc(-c2nc(-c3cnccn3)no2)cc1`, for which the AC50 under setting [2] was 31.6 µM [falling, single point]. With `O=C(COC(=O)c1n[nH]c2ccccc12)Nc1ccccc1Br`, the AC50 under setting [2] was 11.6 µM [falling, partial curve, poor fit].

Take `CCCCC(=O)Nc1ccc(C(=O)c2ccccc2)cc1`: the AC50 under setting [2] was 2 µM [rising, partial curve, poor fit].

`Cc1ccc(C)c(OCc2nc(-c3cccnc3)no2)c1`: the AC50 under setting [2] is 12.6 µM [rising, partial curve, poor fit]. As for `Cc1c(CN2CCC(C(=O)Nc3cccc(-c4cccc(Cl)c4)c3)CC2)cnn1C`, under setting [2], the AC50 is 15.8 µM [falling, single point].

For the compound `CC(C)c1ccc(NC(=O)c2csnn2)cc1`, under setting [2], the AC50 is 0.461 µM [rising, partial curve]. As for `O=C(COC(=O)C1CC1)Nc1ccc(N=Nc2ccccc2)cc1`, the AC50 under setting [2] is 11.6 µM [rising, partial curve, poor fit]. Take `CC(C)(C)OC(=O)NCCc1nnc(S(=O)(=O)Cc2ccc(Cl)cc2Cl)o1`: the AC50 under setting [2] is 3.55 µM [falling, partial curve, poor fit]. In the case of `Cc1cc[n+](-c2[nH]c(=O)sc2/C=N/NC([S-])=Nc2ccccc2)cc1C`, under setting [2], the AC50 was 20.6 µM [rising, single point]. For `CC1CCc2cc(F)ccc2N1S(=O)(=O)c1ccc(Cl)nc1` (stereo not drawn), the AC50 under setting [2] was 10.3 µM [falling, partial curve, poor fit]. Regarding `CCN(CC)S(=O)(=O)c1cc(NC(=O)C2CSC3(C)CCC(=O)N23)ccc1C` (stereo not drawn), the AC50 under setting [2] is 20.6 µM [rising, single point]. For `CCCN1C=CC(=C2C(=O)c3ccccc3C2=O)C=C1`, under setting [2], the concentration at half-maximal activity (AC50) was 3.26 µM [falling, partial curve, poor fit].

For `O=C(O)c1cc([N+](=O)[O-])cc2c1nnn2O`, the AC50 under setting [2] is 25.1 µM [rising, single point]. As to `O=C(c1ccco1)[C@@H]1[C@@H]2C(=O)N(c3ccc(Br)cc3)C(=O)[C@@H]2C2c3ccccc3C=CN21` (stereo partly drawn), the AC50 under setting [2] is 20 µM [falling, single point]. As for `Cc1nc(C)c(C(=O)N/N=C/c2c[nH]c3ccccc23)s1`, the AC50 under setting [2] was 1.84 µM [falling, partial curve, poor fit].

Consider `CC(=O)n1c(-c2ccccc2)c(CO)c2ccccc21`, for which the AC50 under setting [2] is 8.91 µM [rising, partial curve]. On to `CN(C)n1cnc2ccsc2c1=O`, for which the AC50 under setting [2] was 35.5 µM [rising, single point]. In the case of `Cc1ccc(-n2c(SCC(=O)OC(C)C)nnc2-c2ccco2)cc1`, under setting [2], the AC50 was 2 µM [rising, full curve, poor fit]. `N/C(=N\OC(=O)Cc1cccs1)c1ccccc1`: under setting [2], the AC50 is 5.62 µM [rising, single point]. Regarding `O=C(/C=C(/c1ccc(Cl)cc1)n1cncn1)c1ccccc1`, under setting [2], the AC50 is 3.66 µM [rising, partial curve, poor fit]. As to `Cc1cc(C(=O)Nc2nnc(C3CCCCC3)s2)cs1`, the AC50 under setting [2] was 0.00517 µM [rising, full curve, poor fit]. For `COC(=O)c1ccc(COc2cccc3c2OC(C)(C)C3)cc1`, the AC50 under setting [2] was 12.6 µM [falling, single point].

With `Cc1[nH][nH]c(=O)c1C(c1ccc(N(C)C)c(Br)c1)c1c(C)[nH][nH]c1=O`, the AC50 under setting [2] is 35.5 µM [falling, single point].

For `N#Cc1c(NC(=O)c2ccccc2)sc2c1CCCCC2`, the AC50 under setting [2] is 8.2 µM [falling, partial curve, poor fit]. For `O=c1[nH]c(N/N=C/c2ccccc2)nc2ccccc12`, under setting [2], the AC50 was 5.8 µM [falling, partial curve]. On to `Cn1c(-c2ccc3ccccc3n2)[n+](C)c2ccccc21`, for which, under setting [2], the AC50 was 31.6 µM [rising, single point]. Regarding `N#Cc1nc(N2CCCC2)nc(N2CCCC2)n1`, the AC50 runs as follows: under setting [2], 12.6 µM [rising, single point]; under setting [1], 11.2 µM [falling, partial curve, poor fit].

Consider `O=C(NC1=NCCS1)c1sc2cc(Cl)cc(Cl)c2c1Cl`, for which the AC50 under setting [2] was 2.91 µM [rising, full curve, poor fit]. For `CCOC(=O)c1cnc(SC2CCc3ccccc3C2=O)nc1N` (stereo not drawn), the AC50 under setting [2] is 5.01 µM [falling, full curve, poor fit]. On the same count and under the same terms, to `Cc1cc(NC(=O)C2CC2)ccc1NC(=O)c1cccs1` belongs 0.355 µM [rising, full curve, poor fit]. On the same count and under the same terms, to `O=C1CSc2nc3ccccc3n21` belongs 0.631 µM [falling, full curve, poor fit]; to `Cc1nc2cc(-c3ccccc3)nn2c(C)c1CCC(=O)N1CCN(c2ccccn2)CC1`, 2.91 µM [falling, partial curve, poor fit]. As to `Cc1ccc(NC(=O)CSc2nccn(-c3ccc4c(c3)OCCO4)c2=O)cc1`, under setting [2], the AC50 is 0.259 µM [rising, full curve, poor fit].

Take `COC(=O)c1cccc(Nc2c(-c3ccc(O)c(OC)c3)nc3nc[nH]n23)c1`: under setting [2], the AC50 is 8.91 µM [rising, partial curve, poor fit]. For `CCOc1nc(-c2ccccc2)ccc1-c1noc(COC)n1`, the AC50 under setting [2] was 2.31 µM [rising, single point]. As for `CN(C)CCCN(C(=O)CCS(=O)(=O)c1ccccc1)c1nc2cc3c(cc2s1)OCO3`, the AC50 by setting is: under setting [2], 4.47 µM [falling, partial curve, poor fit]; under setting [1], 35.5 µM [rising, single point]. For `CCOC(=O)c1c(NC(=O)c2cc(-c3ccc(Cl)s3)nc3ccccc23)sc(C(N)=O)c1C`, the AC50 under setting [2] is 2.31 µM [falling, partial curve, poor fit]. Regarding `O=C(Nc1ccc(NC(=O)C2CC2)cc1)c1cccs1`, the AC50 under setting [2] is 25.1 µM [falling, single point]. For the compound `COc1cccc(N2C(=O)CC(c3c[nH]c4ccccc34)C2=O)c1` (stereo not drawn), the AC50 under setting [2] is 0.411 µM [falling, full curve]. Same read-out and setting: to `CCn1ncc([N+](=O)[O-])c1C(=O)N1CCCC1` belongs 0.259 µM [falling, full curve, poor fit].

For the compound `O=C1Nc2c(Br)cc(Br)cc2C1(O)N1CCOCC1` (stereo not drawn), the half-maximal activity concentration (AC50) by setting is: under setting [2], 31.6 µM [rising, single point]; under setting [1], 35.5 µM [falling, single point]. Consider `Cn1c(=O)c2c(ncn2CC(O)CO)n(C)c1=O` (stereo not drawn), for which the AC50 under setting [2] was 29.1 µM [rising, single point].

Turning to `CC(Oc1ccccc1)C(=O)Nc1oc(-c2ccco2)c(-c2ccco2)c1C#N` (stereo not drawn), the AC50 under setting [2] is 0.82 µM [falling, partial curve, poor fit]. With `Cc1cccc(-n2cnc(C(=O)NNC(=S)Nc3ccc(Cl)cc3)c2)n1`, the AC50 under setting [2] is 14.1 µM [rising, partial curve, poor fit]. Consider `COc1ccc(/C=C2\SC(=O)N(CCC(=O)NCCCn3ccnc3)C2=O)cc1`, for which the AC50 under setting [2] was 7.08 µM [falling, partial curve, poor fit].

In the case of `CCOC(=O)[C@H]1[C@H]2COc3ccc(Cl)cc3[C@@H]2N2C(=O)c3cc(Cl)ccc3NC(=O)[C@@]12C`, the AC50 by setting is: under setting [2], 23.1 µM [falling, single point]; under setting [1], 23.1 µM [rising, partial curve, poor fit].

With `COC(=O)c1sc(NC(=O)COc2cccc(C)c2)nc1C`, the AC50 under setting [2] was 1.16 µM [falling, full curve].

Regarding `CCOC(=O)/C(=N\Nc1ccccc1Cl)N1CCN(Cc2ccccc2)CC1`, under setting [2], the AC50 is 0.206 µM [falling, partial curve, poor fit]. For `Cc1c(-c2nc(N)nc(Nc3ccccc3)n2)oc2ccccc12`, the AC50 under setting [2] is 10.3 µM [falling, partial curve]. Turning to `c1ccc2[nH]c(CSc3ncnc4c3oc3ccccc34)nc2c1`, the AC50 under setting [2] was 1.41 µM [rising, partial curve, poor fit].

With `Cc1cc(N2CCC(C)CC2)n2nc(C)c(-c3ccccc3)c2n1`, under setting [2], the AC50 was 4.47 µM [rising, single point]. For `COc1cc(C=O)ccc1OCC(=O)N1CCCC1`, under setting [2], the AC50 is 11.2 µM [rising, partial curve, poor fit]. Regarding `CCC1CCCCN1CCCNC(=O)CS(=O)Cc1nc(-c2ccc(OC)c(OC)c2)oc1C` (stereo not drawn), under setting [2], the AC50 is 10 µM [falling, partial curve, poor fit].

These data come from PubChem BioAssay AID493014 (National Center for Advancing Translational Sciences (NCATS), 2011).
